± gives the standard deviation. The entries are a selection whose mix differs from that of the whole data set. Many entries were measured with a wide error.
system: MIWI (PIWIL1) piRISC loaded with piRNA #1 (30 nt); experiment: pre-steady-state target cleavage rate (min^-1); MIWI and MILI are mouse PIWI proteins and EfPiwi is from a freshwater sponge; tags in brackets are library labels; higher = faster piRNA-guided slicing of the target; details: guide: piRNA #1 5'p-UGAGGUAGUAGGUUGUAUAGUAUCCAGAGG; auxiliary factor: 500 nM mouse GTSF1
Method in brief: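 The pre-steady-state cleavage rate came from a burst-and-steady-state fit to pooled data from three Cleave-'n-Seq trials, in which uncleaved targets were sequenced and normalised to depth and to weakly complementary targets. Each reaction held 0.1 nM transcribed, DNA-blocked target RNA library and 1 nM active affinity-purified piRISC carrying one synthetic guide, with or without 500 nM GTSF1 partner protein, in HEPES–potassium acetate buffer at 33 °C for 0–8 or 0–960 min. k3 was capped at 0.0001 min^-1.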

Q: Which “pre-steady-state target cleavage rate” value does the source give for GGUCUGGAUACUAUACAACCUUGAACCUCA here?
A: 0.000225 ± 0.019

Q: With GGAGACCUAUGAUAUGUUCCUACAUGCUCA as the sequence, how does the “pre-steady-state target cleavage rate” value read?
A: 0.00027 ± 0.017

Q: For “GCUCUGGAUACUAUACAACCUACUACCUCU [g2:g29:cont:t1U]”, which “pre-steady-state target cleavage rate” value is on record?
A: 2.16 ± 0.13

Q: GGUCUGAGAUACUAUACAACCUACUACCUCA was tested. Which “pre-steady-state target cleavage rate” value did it give?
A: 1.89 ± 0.11

Q: GGAGACCUAUGAAUACAACCUAACUACCUCA was tested. Which “pre-steady-state target cleavage rate” value did it give?
A: 0.000864 ± 0.0031

Q: With GGACUGGAUACUAUACAAGCCUACUACCUCA as the sequence, how does the “pre-steady-state target cleavage rate” value read?
A: 0.000441 ± 0.018

Q: How did the “pre-steady-state target cleavage rate” value turn out when GGUCUGGAUACUAUACAACCUACACCUCA was run?
A: 0.000445 ± 0.0053

Q: For CCUCUGGAUACUAUACAACCUAGUACCUCA, which “pre-steady-state target cleavage rate” value is on record?
A: 0.172 ± 0.039

Q: With GCUCGGGAUACUAUACAACCUACUACCUCA as the sequence, how does the “pre-steady-state target cleavage rate” value read?
A: 1.5 ± 0.071

Q: With GGACUGGAUACUAUAGAACCUACUUCCUCA as the sequence, how does the “pre-steady-state target cleavage rate” value read?
A: 0.000396 ± 0.014

Q: For GGAGACCUAUCUAUACAACGAACUACCUCA, which “pre-steady-state target cleavage rate” value is on record?
A: 0.000191 ± 0.014

Q: For CCACUGGUUACUAUACAACCUACUACCUCA, which “pre-steady-state target cleavage rate” value is on record?
A: 2.28 ± 0.14

Q: GCUCUGGUUACUUUACAACCUACUACCUCA was tested. Which “pre-steady-state target cleavage rate” value did it give?
A: 1.7 ± 0.089

Q: How did the “pre-steady-state target cleavage rate” value turn out when GCACUGGAUACUAUACAACCAACUACCUCA was run?
A: 0.167 ± 0.017

Q: GGAGACCUAUGAAUACAACUUACUACCUCA was tested. Which “pre-steady-state target cleavage rate” value did it give?
A: 0.00112 ± 0.0046

Q: With GGAGACCAUACUAUACAUCCUAGUACCUCA as the sequence, how does the “pre-steady-state target cleavage rate” value read?
A: 0.343 ± 0.029

Q: For GGUCAGGAUUCUAUACAACCUACUACCUCA, which “pre-steady-state target cleavage rate” value is on record?
A: 1.77 ± 0.12

Q: For GGAGACCUAUGUAUACAACCUUCAACCUCA, which “pre-steady-state target cleavage rate” value is on record?
A: 0.000812 ± 0.0036

Q: For GGAGACCUAUGAUAUCAACCUACACCUCA, which “pre-steady-state target cleavage rate” value is on record?
A: 0.000352 ± 0.013

Q: Which “pre-steady-state target cleavage rate” value does the source give for GGAGACCUAUGUAUUCAUCCUACUACCUCA here?
A: 0.00074 ± 0.0036

Q: How did the “pre-steady-state target cleavage rate” value turn out when CCUCUGGUUACUUUACAACCUACUACCUCA was run?
A: 2.24 ± 0.16

Q: For GGAGACCUAACUUAACAACCUACUACCUCA, which “pre-steady-state target cleavage rate” value is on record?
A: 0.00423 ± 0.0053

Q: With CCUCUGCUUACUAUACAACCUACUACCUCA as the sequence, how does the “pre-steady-state target cleavage rate” value read?
A: 2.19 ± 0.15

Q: GGAGACCUAUGUAUUCAACCUACUACCACA was tested. Which “pre-steady-state target cleavage rate” value did it give?
A: 0.000402 ± 0.0081

Q: GGUCUGGAUACUAUACAACCUACAACGUCA was tested. Which “pre-steady-state target cleavage rate” value did it give?
A: 0.00169 ± 0.0036

Q: GGAGACCUAUGAAUACAAUCUACUACCUCA was tested. Which “pre-steady-state target cleavage rate” value did it give?
A: 0.000207 ± 0.015

Q: With CCUCCGGAUACUAUACAACCUACUACCUCA as the sequence, how does the “pre-steady-state target cleavage rate” value read?
A: 2.08 ± 0.14

Q: How did the “pre-steady-state target cleavage rate” value turn out when GGUGUGCAUACUAUACAACCUACUACCUCA was run?
A: 1.73 ± 0.1

Q: With GGAGACCUAUGUAUAGAUCCUACUACCUCA as the sequence, how does the “pre-steady-state target cleavage rate” value read?
A: 0.00119 ± 0.0038

Q: With CGUCUGGAUACUAUACAACCUACUACCUGA as the sequence, how does the “pre-steady-state target cleavage rate” value read?
A: 0.517 ± 0.044

Q: CCUCUGGAUACUAUACAACCUACUACUUCA was tested. Which “pre-steady-state target cleavage rate” value did it give?
A: 2.32 ± 0.16

Q: Which “pre-steady-state target cleavage rate” value does the source give for GGACUGGAUACUAUACAACCUACUUCCACA here?
A: 0.000349 ± 0.014

Q: How did the “pre-steady-state target cleavage rate” value turn out when GGUCUGCUUACUAUACAACCUACUACCUCA was run?
A: 1.74 ± 0.12

Q: How did the “pre-steady-state target cleavage rate” value turn out when CCUGUGCAUACUAUACAACCUACUACCUCA was run?
A: 2.3 ± 0.15

Q: How did the “pre-steady-state target cleavage rate” value turn out when GGAGACCAUACUAUACGAACCUACUACCUCA was run?
A: 0.00142 ± 0.0045

Q: GGAGACCUAUGUAUACAACGUAGUACCUCA was tested. Which “pre-steady-state target cleavage rate” value did it give?
A: 0.00118 ± 0.004

Q: Which “pre-steady-state target cleavage rate” value does the source give for CCUCACGAUACUAUACAACCUACUACCUCA here?
A: 2.1 ± 0.12

Q: For GGAGACCUUACUAUACAACGAACUACCUCA, which “pre-steady-state target cleavage rate” value is on record?
A: 0.00122 ± 0.0025

Q: How did the “pre-steady-state target cleavage rate” value turn out when GCUCUGGAUAGUAUACUACCUACUACCUCA was run?
A: 0.858 ± 0.049

Q: With GGUCUGGAUACUAUACGAACCUACUACCUCA as the sequence, how does the “pre-steady-state target cleavage rate” value read?
A: 0.00151 ± 0.0047

Source: the supplement of paper PMC10338343
